From the supplement of paper PMC4683952
The list shows a part of the results. The rule behind the calls is not given here. This data set is noisy: repeats of one test often differ as much as different tests do.

System: Lgr5 (MarsCy1-Lgr5-EGFP, U2OS)
Experiment: cell-surface Lgr5 expression (SCi1 fluorescence, background-subtracted) relative to WT DMSO (fold of DMSO control); higher = more Lgr5 at the plasma membrane
Details: U2OS MarsCy1-Lgr5-EGFP stable; treatment time: overnight; library: Kinase Gold; 20 µM
Method: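 U2OS cells stably expressing MarsCy1-Lgr5-EGFP in 384-well plates were incubated overnight with single-dose compounds. Cell-surface Lgr5 was stained with SCi1 and scanned at 700 nm on a LI-COR Odyssey. Intensity was background-subtracted (parental U2OS) and expressed relative to WT DMSO wells.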

cell-surface Lgr5 expression, inactive:
COc1cccc(NC(=O)c2cc3cc(OC)ccc3oc2=O)c1 0.949, Cc1cc(NC(=O)c2cccnc2)ccc1NC(=O)c1ccco1 0.851, COc1cc(OC)cc(C(=O)NNC(=O)c2ccco2)c1 0.837, Cc1ccc(-n2c(SCC(N)=O)nnc2-c2ccncc2)cc1 0.913, CNC(=S)NNC(=O)c1cccnc1 0.926, Cc1ccc2c(n1)sc1c(-c3ccccc3)c(C#N)c(N)nc12 0.702, CC(=O)c1ccc(-c2ccc(/C=C3/SC(=S)NC3=O)o2)cc1 0.527, O=C1N=C(N2CCOCC2)S/C1=C1\C(=O)Nc2ccccc21 0.885, O=C(CC(=O)c1ccccc1)Nc1ccccn1 0.899, O=C(/C=C/c1ccccc1)NCCc1c[nH]c2ccccc12 0.857, Cc1cccc(Nc2nc(NCCO)nc(N3CCOCC3)n2)c1 0.761, CCC(=O)NNC(=O)c1c(O)c2ccccc2n(CC)c1=O 0.803, COc1ccc(OCC(=O)NNC(=O)c2ccco2)cc1 0.88, O=C(O)c1cc(-c2ccccc2)nc2ccc(F)cc12 0.929, O=C(Nc1nc2ccccc2s1)c1ccc2c(c1)OCCO2 0.6, O=C(/C=C/c1cccs1)NC(=S)NNC(=O)c1ccccc1O 0.449, CC1(C(=O)C[n+]2cccc(C(N)=O)c2)CCC(=O)O1 (configuration not stated) 0.905, O=C(Nc1ccc2c(c1)OCCO2)c1ccc(Cl)cc1Cl 0.82, Cc1cccc(C)c1NC(=O)COC(=O)c1nonc1N 0.808, O=c1oc2ccc3ccccc3c2cc1-c1nnc(-c2ccncc2)o1 0.776, CC(=O)NNc1cc(C)nc(NS(=O)(=O)c2ccc(C)cc2)n1 0.944, O=C(Nc1cccc(NC(=O)c2ccco2)c1)c1ccc(F)cc1 0.712
